Results deposited as PubChem BioAssay AID1259290 (Sanger Institute, 2017)

Aim: 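siRNA screen across the kinome seeking synthetic lethal partners for BYL719, cetuximab or trametinib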 (primary screen)
Cells: human SNUC1 colorectal cancer cells
Knock-down reagent: siRNA pool against human genes
Conditions: anchor drugs BYL719 1 µM, cetuximab 5 µg/ml or trametinib 10 nM, or DMSO vehicle alone
Measurement: 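Cell viability relative to a non-targeting siRNA control, replicate-averaged, as robust z-score for knock-down alone, plus a synergy score for each anchor drug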
Direction: viability z-score, siRNA alone: higher = more viable cells; low values mean essential gene; viability vs control, siRNA alone: higher = more viable cells; synergy score with BYL719 and synergy score with Cetuximab and synergy score with Trametinib: higher = stronger synthetic lethal effect with drug
Call rule: 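a knock-down without drug scoring a robust z under -3 counts as essential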
Calls: active = essential: knock-down alone cut viability (z below -3); inactive = no clear viability loss with knock-down alone
Shown is one part, drawn at random, of 794 deposited reagents. Of all reagents, 9 (1.1%) were called active. 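Calls rest on knock-down alone, not drug synergy; synergy above 0.15 was grouped apart and does not affect calls.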 No viability above 1 is reported: the scale is capped. No sequences are given here. Not given: the amount of reagent, the time to read-out.

| target gene | viability z-score, siRNA alone | viability vs control, siRNA alone | synergy score with BYL719 | synergy score with Cetuximab | synergy score with Trametinib | Call |
| --- | --- | --- | --- | --- | --- | --- |
| ADK (adenosine kinase) | 0.694 | 0.978 | -0.0556 | -0.0656 | -0.0224 | inactive |
| MAP2K7 (mitogen-activated protein kinase kinase 7) | 0.154 | 0.93 | -0.0513 | -0.0236 | 0.156 | inactive |
| ACVR2A (activin A receptor type 2A) | -0.558 | 0.865 | -0.276 | 0.0258 | -0.142 | inactive |
| EPHA8 (EPH receptor A8) | 0.809 | 0.988 | -0.128 | -0.0256 | 0.00938 | inactive |
| EIF2AK4 (eukaryotic translation initiation factor 2 alpha kinase 4) | -0.932 | 0.832 | -0.042 | 0.0296 | 0.0476 | inactive |
| TP53BP1 (tumor protein p53 binding protein 1) | -0.548 | 0.866 | -0.305 | 0.0551 | -0.0844 | inactive |
| CDK13 (cyclin dependent kinase 13) | 0.936 | 1 | -0.108 | -0.0447 | 0.0513 | inactive |
| RPS6KA3 (ribosomal protein S6 kinase A3) | -0.0879 | 0.908 | -0.0769 | -0.133 | -0.0307 | inactive |
| MKNK1 (MAPK interacting serine/threonine kinase 1) | -0.0954 | 0.907 | -0.128 | -0.0587 | -0.0657 | inactive |
| TSSK1B (testis specific serine kinase 1B) | -0.802 | 0.843 | -0.0593 | 0.00904 | -0.0115 | inactive |
| LATS1 (large tumor suppressor kinase 1) | 0.936 | 1 | -0.133 | 0.037 | 0.0383 | inactive |
| RPS6KA1 (ribosomal protein S6 kinase A1) | -1 | 0.825 | -0.214 | 0.022 | 0.0278 | inactive |
| CHKB (choline kinase beta) | -0.417 | 0.878 | -0.0549 | 0.0421 | 0.0387 | inactive |
| CDK17 (cyclin dependent kinase 17) | -0.916 | 0.833 | -0.118 | -0.117 | -0.0577 | inactive |
| STK17A (serine/threonine kinase 17a) | -1.38 | 0.792 | -0.0958 | 0.0761 | -0.00855 | inactive |
| DLG2 (discs large MAGUK scaffold protein 2) | 0.345 | 0.947 | -0.241 | -0.0658 | -0.0164 | inactive |
| GUCY2D (guanylate cyclase 2D, retinal) | -2.52 | 0.688 | -0.175 | 0.0868 | -0.0674 | inactive |
| PDGFRL (platelet derived growth factor receptor like) | 0.936 | 1 | -0.122 | 0.0593 | 0.0282 | inactive |
| MSR1 (macrophage scavenger receptor 1) | -1.68 | 0.764 | -0.194 | -0.0981 | -0.0389 | inactive |
| TAOK3 (TAO kinase 3) | -1.21 | 0.807 | -0.0733 | 0.0269 | 0.0129 | inactive |

Targets listed so far whose gene name begins with R or r (2):
| target gene | viability z-score, siRNA alone | viability vs control, siRNA alone | synergy score with BYL719 | synergy score with Cetuximab | synergy score with Trametinib | Call |
| --- | --- | --- | --- | --- | --- | --- |
| RPS6KA3 (ribosomal protein S6 kinase A3) | -0.0879 | 0.908 | -0.0769 | -0.133 | -0.0307 | inactive |
| RPS6KA1 (ribosomal protein S6 kinase A1) | -1 | 0.825 | -0.214 | 0.022 | 0.0278 | inactive |
